The supplement of paper PMC12823440, “Inhibitors supercharge kinase turnover through native proteolytic circuits” (Nature, 2025)
Counter-ions that a name gives are not always drawn. This is one part of the list. The calls rarely recur for the same compound in another form.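 Kinases were expressed as nanoluciferase fusions in K562 cells and luminescence was read every 4 h between 2 and 18 h as percent of control, DMSO set to 100% and a positive control to 0%. A time point counts as decreased when the signal drops significantly (2 sigma). The hit call is the authors' own, does not follow from the count of time points alone, and its rule is not shown.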

Amino acid sequences for entries named in this document (tags omitted). A change or cut given only in a name is not applied to a line headed by its entry.
UniProt Q01974, whole entry: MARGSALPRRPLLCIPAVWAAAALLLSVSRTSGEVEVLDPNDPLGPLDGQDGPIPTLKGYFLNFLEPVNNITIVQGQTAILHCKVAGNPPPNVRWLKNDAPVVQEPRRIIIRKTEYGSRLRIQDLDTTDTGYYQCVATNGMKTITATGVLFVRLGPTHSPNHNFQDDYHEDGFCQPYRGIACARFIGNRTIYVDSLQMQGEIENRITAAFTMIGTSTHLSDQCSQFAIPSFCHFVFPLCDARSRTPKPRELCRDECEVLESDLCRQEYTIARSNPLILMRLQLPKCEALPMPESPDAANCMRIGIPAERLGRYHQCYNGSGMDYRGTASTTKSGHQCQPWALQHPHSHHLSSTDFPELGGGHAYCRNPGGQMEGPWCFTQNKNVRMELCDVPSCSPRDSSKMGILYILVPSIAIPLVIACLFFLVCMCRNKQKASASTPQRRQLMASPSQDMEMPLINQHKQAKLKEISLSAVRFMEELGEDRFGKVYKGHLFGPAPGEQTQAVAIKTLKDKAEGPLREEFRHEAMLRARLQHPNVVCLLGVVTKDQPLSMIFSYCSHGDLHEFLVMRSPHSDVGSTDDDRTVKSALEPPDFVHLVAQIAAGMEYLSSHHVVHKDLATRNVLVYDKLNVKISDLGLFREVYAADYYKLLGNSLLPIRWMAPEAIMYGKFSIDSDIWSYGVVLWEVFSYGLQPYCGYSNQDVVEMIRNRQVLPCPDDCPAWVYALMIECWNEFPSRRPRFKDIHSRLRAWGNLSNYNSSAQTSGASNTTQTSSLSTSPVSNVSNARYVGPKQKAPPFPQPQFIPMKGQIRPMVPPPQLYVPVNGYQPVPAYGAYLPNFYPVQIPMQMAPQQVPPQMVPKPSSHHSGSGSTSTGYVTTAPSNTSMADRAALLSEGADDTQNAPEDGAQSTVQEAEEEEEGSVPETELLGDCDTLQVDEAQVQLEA
UniProt Q15418, whole entry: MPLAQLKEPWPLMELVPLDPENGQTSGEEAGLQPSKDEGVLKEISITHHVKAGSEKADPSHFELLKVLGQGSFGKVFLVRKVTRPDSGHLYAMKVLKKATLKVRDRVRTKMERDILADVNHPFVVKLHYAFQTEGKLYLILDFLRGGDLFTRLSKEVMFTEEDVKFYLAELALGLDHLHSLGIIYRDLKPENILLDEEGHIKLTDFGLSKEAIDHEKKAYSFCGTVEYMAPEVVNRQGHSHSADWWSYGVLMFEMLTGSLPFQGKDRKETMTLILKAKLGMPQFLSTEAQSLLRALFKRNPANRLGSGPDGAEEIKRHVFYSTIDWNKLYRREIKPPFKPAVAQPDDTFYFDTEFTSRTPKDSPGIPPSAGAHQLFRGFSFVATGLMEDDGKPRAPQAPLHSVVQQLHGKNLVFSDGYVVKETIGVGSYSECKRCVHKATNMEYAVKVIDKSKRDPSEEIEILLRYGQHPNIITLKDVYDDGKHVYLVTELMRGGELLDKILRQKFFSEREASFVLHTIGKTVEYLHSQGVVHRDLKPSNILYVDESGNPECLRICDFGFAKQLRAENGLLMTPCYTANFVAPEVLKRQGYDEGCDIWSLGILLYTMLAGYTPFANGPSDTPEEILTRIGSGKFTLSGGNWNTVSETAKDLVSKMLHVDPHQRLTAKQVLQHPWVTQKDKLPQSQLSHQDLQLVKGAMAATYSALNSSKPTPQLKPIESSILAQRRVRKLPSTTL
UniProt Q9NYA1, whole entry: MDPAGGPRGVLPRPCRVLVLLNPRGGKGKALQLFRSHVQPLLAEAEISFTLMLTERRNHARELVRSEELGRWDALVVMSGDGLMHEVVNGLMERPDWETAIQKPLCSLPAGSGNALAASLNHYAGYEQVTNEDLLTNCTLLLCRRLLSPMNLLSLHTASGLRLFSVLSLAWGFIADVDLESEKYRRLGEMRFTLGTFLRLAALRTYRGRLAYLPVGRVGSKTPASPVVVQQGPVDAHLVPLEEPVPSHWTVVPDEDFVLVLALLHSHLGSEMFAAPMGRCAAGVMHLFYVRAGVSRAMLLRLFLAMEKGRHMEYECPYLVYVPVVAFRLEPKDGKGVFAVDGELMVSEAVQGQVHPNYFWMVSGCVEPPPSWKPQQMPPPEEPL
UniProt Q9Y6E0: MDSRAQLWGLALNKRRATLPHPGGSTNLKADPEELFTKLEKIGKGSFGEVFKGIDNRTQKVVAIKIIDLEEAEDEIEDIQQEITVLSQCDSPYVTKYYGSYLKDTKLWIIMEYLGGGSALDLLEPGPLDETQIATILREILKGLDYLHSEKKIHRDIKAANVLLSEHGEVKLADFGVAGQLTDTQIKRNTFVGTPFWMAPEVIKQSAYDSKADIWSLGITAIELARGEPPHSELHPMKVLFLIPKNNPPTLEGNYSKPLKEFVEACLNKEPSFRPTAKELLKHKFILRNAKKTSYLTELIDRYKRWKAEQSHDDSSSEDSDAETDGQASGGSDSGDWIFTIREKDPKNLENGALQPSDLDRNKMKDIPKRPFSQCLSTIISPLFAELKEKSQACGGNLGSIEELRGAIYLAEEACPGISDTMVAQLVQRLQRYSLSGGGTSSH
UniProt Q15208: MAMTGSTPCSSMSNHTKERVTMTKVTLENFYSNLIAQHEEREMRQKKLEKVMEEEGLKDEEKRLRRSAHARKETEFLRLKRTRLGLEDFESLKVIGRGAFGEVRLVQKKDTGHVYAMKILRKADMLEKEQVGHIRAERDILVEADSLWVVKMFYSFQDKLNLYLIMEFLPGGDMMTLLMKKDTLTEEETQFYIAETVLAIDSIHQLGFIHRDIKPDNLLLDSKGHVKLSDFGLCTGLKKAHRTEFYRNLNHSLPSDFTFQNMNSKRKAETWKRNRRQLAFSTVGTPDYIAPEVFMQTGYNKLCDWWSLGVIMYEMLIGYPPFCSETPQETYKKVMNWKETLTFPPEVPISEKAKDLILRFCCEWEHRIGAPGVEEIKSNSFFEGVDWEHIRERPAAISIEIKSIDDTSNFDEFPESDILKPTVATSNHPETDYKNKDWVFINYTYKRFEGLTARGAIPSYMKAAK
UniProt P29597: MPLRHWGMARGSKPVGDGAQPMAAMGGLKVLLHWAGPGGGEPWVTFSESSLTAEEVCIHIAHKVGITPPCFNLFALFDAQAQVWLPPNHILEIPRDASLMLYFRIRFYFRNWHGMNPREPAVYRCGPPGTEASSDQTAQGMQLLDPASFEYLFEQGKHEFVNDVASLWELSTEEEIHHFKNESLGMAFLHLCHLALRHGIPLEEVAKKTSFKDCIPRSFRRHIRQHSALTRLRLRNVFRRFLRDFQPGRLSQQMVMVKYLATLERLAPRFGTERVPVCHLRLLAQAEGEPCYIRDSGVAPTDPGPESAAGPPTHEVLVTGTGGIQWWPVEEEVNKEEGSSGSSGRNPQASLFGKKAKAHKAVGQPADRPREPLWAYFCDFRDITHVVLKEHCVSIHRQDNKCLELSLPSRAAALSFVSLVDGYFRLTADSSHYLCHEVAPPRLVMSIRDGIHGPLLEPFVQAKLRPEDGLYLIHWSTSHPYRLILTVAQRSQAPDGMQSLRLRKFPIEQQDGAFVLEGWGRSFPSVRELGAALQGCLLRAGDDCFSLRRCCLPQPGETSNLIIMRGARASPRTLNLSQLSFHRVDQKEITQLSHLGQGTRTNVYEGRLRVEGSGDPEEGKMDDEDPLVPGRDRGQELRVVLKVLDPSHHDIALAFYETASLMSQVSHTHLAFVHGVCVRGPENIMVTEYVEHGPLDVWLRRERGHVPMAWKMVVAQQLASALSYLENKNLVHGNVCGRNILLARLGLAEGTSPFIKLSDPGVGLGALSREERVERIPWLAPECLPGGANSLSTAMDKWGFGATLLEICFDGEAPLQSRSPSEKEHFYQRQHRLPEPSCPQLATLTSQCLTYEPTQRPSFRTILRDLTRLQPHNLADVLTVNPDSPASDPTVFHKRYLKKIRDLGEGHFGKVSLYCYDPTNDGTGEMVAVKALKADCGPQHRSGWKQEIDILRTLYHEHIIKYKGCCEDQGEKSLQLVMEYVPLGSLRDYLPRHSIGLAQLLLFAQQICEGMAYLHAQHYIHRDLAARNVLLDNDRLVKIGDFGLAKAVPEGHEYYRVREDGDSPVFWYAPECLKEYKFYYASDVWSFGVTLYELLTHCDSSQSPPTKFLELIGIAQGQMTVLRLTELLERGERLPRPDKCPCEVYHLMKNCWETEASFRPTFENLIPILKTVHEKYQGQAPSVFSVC
UniProt Q6PHR2: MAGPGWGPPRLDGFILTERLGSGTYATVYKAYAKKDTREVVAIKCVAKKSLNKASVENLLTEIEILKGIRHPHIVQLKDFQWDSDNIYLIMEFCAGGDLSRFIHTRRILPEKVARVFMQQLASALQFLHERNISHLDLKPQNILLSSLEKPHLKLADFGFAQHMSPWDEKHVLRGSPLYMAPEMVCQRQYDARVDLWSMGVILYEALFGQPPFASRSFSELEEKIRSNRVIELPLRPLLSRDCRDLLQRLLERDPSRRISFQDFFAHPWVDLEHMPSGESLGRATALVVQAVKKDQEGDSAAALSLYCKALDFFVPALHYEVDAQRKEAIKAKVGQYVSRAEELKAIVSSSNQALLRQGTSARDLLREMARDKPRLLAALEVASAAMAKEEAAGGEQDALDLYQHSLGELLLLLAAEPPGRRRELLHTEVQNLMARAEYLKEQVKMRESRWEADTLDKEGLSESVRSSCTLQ
UniProt P07947, whole entry, looked up: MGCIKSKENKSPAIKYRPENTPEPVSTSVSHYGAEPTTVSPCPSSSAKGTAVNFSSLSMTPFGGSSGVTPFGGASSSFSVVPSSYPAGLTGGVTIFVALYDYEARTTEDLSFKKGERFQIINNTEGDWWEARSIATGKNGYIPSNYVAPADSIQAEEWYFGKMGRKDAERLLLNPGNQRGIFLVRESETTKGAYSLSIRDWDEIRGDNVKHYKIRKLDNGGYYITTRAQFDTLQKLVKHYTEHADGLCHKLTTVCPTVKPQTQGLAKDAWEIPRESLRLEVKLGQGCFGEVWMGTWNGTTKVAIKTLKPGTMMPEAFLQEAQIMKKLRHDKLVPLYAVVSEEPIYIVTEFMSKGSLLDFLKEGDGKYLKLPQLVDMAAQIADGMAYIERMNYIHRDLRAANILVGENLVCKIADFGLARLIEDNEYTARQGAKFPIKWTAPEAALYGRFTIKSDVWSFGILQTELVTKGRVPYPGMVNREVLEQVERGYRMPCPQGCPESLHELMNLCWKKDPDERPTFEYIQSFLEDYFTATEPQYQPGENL
UniProt P11802: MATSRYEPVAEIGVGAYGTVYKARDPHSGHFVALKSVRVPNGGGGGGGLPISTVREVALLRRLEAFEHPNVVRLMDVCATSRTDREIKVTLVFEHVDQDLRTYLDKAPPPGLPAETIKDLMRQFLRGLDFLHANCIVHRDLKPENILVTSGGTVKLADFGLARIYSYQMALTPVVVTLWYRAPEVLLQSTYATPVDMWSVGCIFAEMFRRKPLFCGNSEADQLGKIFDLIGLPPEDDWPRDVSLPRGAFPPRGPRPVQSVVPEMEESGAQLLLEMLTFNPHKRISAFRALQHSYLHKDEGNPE
UniProt P50613: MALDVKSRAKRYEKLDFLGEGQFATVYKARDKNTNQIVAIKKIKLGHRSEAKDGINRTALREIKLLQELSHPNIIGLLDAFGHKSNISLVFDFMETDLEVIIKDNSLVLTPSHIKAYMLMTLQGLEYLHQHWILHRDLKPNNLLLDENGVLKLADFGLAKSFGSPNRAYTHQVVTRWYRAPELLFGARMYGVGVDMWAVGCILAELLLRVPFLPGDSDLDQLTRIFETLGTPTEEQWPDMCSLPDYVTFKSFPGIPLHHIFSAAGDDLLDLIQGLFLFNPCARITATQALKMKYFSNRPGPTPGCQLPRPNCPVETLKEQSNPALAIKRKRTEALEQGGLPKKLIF
UniProt P50750, whole entry: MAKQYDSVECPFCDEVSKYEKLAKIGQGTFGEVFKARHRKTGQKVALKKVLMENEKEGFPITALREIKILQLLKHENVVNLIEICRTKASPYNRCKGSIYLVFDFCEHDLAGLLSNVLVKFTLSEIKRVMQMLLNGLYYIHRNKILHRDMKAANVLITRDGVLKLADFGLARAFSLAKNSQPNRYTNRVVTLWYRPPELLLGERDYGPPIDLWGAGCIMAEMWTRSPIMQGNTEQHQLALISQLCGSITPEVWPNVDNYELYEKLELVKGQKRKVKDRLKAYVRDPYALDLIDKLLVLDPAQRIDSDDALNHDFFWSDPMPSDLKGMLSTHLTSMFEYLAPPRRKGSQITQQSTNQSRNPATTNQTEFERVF

What was measured:
Details in all cases: K562; 2-18 h
[1] = target: ROR2 (UniProt Q01974); experiment: number of time points (of 5) at which kinase-Nluc abundance scored as decreased, DMSO-normalised (count); higher = more persistent destabilization
[2] = target: RPS6KA1 (UniProt Q15418); experiment: as above
[3] = target: SPHK1 (UniProt Q9NYA1); experiment: as above
[4] = target: SRC (UniProt P12931); experiment: as above
[5] = target: STK24 (UniProt Q9Y6E0); experiment: as above
[6] = target: STK38 (UniProt Q15208); experiment: as above
[7] = target: SYK (UniProt P43405); experiment: as above
[8] = target: TEC (UniProt P42680); experiment: as above
[9] = target: TYK2 (UniProt P29597); experiment: as above
[10] = target: ULK3 (UniProt Q6PHR2); experiment: as above
[11] = target: YES1 (UniProt P07947); experiment: as above
[12] = target: ZAK (UniProt Q9NYL2); experiment: as above
[13] = target: ZAP70 (UniProt P43403); experiment: as above
[14] = target: CDK4 (UniProt P11802); experiment: number of time points (of 4; 2 h point missing) at which kinase-Nluc abundance scored as decreased, DMSO-normalised (count); higher = more persistent destabilization
[15] = target: CDK7 (UniProt P50613); experiment: as above
[16] = target: CDK9 (UniProt P50750); experiment: as above

Measured: number of time points

Cn1nccc1Nc1nccc(-c2ccn([C@H](CO)c3ccc(Cl)c(F)c3)c(=O)c2)n1 [Ravoxertinib hydrochloride] (10 µM)
0: all assays above

C[C@@H](c1ccc(F)cc1)n1nnc2cnc3ccc(-c4ccc5ocnc5c4)cc3c21 (10 µM)
0: all assays above

Cn1cc(-c2cnn3c(N)c(Br)c([C@@H]4CCCNC4)nc23)cn1 (2.5 µM)
2: [15]
1: [5] | [8] | [9] | [10] | [11] | [12] | [16]
0: all other assays above

COc1cc2c(N3CCN(C(=O)Nc4ccc(OC(C)C)cc4)CC3)ncnc2cc1OCCCN1CCCCC1 [Tandutinib] (10 µM)
0: all assays above

CCS(=O)(=O)Nc1ccc2[nH]c(O)c(C(=Nc3ccc(CN4CCCCC4)cc3)c3ccccc3)c2c1 [Hesperadin] (2.5 µM)
1: [6] | [15]
4: [10]
3: [9]
2: [8] | [11]
0: all other assays above

O=c1cc(CN2CCOCC2)occ1OCCCCCSc1ccnc2cc(C(F)(F)F)ccc12 (10 µM)
0: all assays above

S=C(SSC(=S)N1CCOCC1)N1CCOCC1 (10 µM)
1: [1] | [9]
5: [10]
3: [8]
0: all other assays above

FC(F)c1nc2ccccc2n1-c1nc(N2CCOCC2)nc(N2CCOCC2)n1 (2 µM)
0: all assays above

CNC(=O)c1cc(COc2nnc(Nc3ccc(Cl)cc3)c3ccoc23)ccn1 [Telatinib] (10 µM)
0: all assays above

CC#CC(=O)Nc1ccc2ncnc(Nc3cccc(Br)c3)c2c1 (10 µM)
2: [9] | [15]
0: all other assays above

C[C@@H]1CC[C@@H](Nc2nc(NC(C)(C)C)ncc2C(N)=O)C[C@H]1O (10 µM)
0: all assays above

CC(=O)NC1CC(n2cnc(NC(=O)Cc3ccc4ccccc4c3)c2)C1 (configuration not stated) (10 µM)
0: all assays above

N#CCC1CCN(c2nc(Nc3ccc(N4CCC(O)CC4)cc3)c3c(=O)[nH]ncc3n2)CC1 [Gusacitinib] (10 µM)
0: all assays above

COc1ccc(Cl)c(Nc2nc3ccccc3nc2NS(=O)(=O)c2cccc(NC(=O)C(C)(C)N)c2)c1 [Pilaralisib] (10 µM)
0: all assays above

CCS(=O)(=O)c1ncc(Cl)c(C(=O)N(Cc2ccc(Cl)cc2)Cc2ccco2)n1 (2.5 µM)
0: all assays above

C=CC(=O)Nc1cccc(Nc2nc(Nc3ccc(N4CCN(C(C)=O)CC4)cc3OC)ncc2C(F)(F)F)c1 [Rociletinib] (10 µM)
0: all assays above

O=C(NCCN1CCCC1)c1cc(-c2ccc(CN3CCOCC3)cc2)nc2ccc(F)cc12 (10 µM)
0: all assays above

N#Cc1c(C2CCNCC2)cc(-c2c(O)cccc2OCC2CC2)nc1N [ACHP (Hydrochloride)] (10 µM)
0: all assays above

Cc1cc(=O)oc2c(C=O)c(O)ccc12 (10 µM)
0: all assays above

CCNc1nc(Nc2cc(F)c(C(=O)N3CCOCC3)cc2OC)ncc1C(F)(F)F [GNE-7915 (tosylate)] (10 µM)
0: all assays above

Nc1ccc(-c2cnc(N)c(-c3ccc(Cl)cc3)c2)cn1 (10 µM)
0: all assays above

Nothing new here: 2 of the compounds above.
N#Cc1c(C2CCNCC2)cc(-c2c(O)cccc2OCC2CC2)nc1N [ACHP (Hydrochloride)] (10 µM)
0: all assays above

Cc1cc(=O)oc2c(C=O)c(O)ccc12 (10 µM)
0: all assays above

More structures follow.

CC(C)(C)c1nc(-c2cccc(NS(=O)(=O)c3c(F)cccc3F)c2F)c(-c2ccnc(N)n2)s1 [Dabrafenib] (2.5 µM)
0: all assays above

O=C(N/N=C/c1coc2ccccc2c1=O)c1cccnc1 (10 µM)
0: all assays above

Cc1[nH]c(/C=C2\C(=O)Nc3ccc(F)cc32)c(C)c1C(=O)N[C@H]1CCN(C(=O)N(C)C)C1 [Vorolanib] (10 µM)
0: all assays above

COc1cc2ncc(-c3ccccc3)nc2cc1OC [Tyrphostin AG1296] (10 µM)
0: all assays above

CCOc1ccc2cc(-c3nn(CC4CCN(C)CC4)c4ncnc(N)c34)ccc2n1 (10 µM)
0: all assays above

CC(C)(O)CNc1ncc(-c2ccnc(Nc3ccnc(Cl)c3)n2)c(CC2CC2)n1 (2.5 µM)
0: all assays above

NC(=O)c1ccc2[nH]ccc2c1 (10 µM)
0: all assays above

CN(C)CCCOc1ccc(-c2ccc3ncc4c(c3c2)n(C2CCOCC2)c(=O)n4C)cn1 (2 µM)
0: all assays above

O=S(=O)(NCCCN1c2ccccc2CCc2ccc(Cl)cc21)c1ccc(OC(F)(F)F)cc1 (2.5 µM)
0: all assays above

COc1cc(Nc2ncc(F)c(Nc3ccc4c(n3)N(COP(=O)(O)O)C(=O)C(C)(C)O4)n2)cc(OC)c1OC [Fostamatinib Disodium] (10 µM)
1: [15]
2: [9]
0: all other assays above

Cc1cc(Nc2ncnc3ccc(NC4=NC(C)(C)CO4)cc23)ccc1Oc1ccn2ncnc2c1 [Tucatinib] (2.5 µM)
0: all assays above

CN1C(=O)N[C@H](Cc2c[nH]c3c(Cl)cccc23)C1=O [Necrostatin 2] (10 µM)
0: all assays above

Cn1ncc(Cl)c1-c1cc(C(=O)N[C@H](CN)Cc2ccc(F)c(F)c2)oc1Cl [Uprosertib] (10 µM)
0: all assays above

Structural class, the compounds so far with a carbonyl joined to an NH by a bond outside any ring.
COc1cc2c(N3CCN(C(=O)Nc4ccc(OC(C)C)cc4)CC3)ncnc2cc1OCCCN1CCCCC1 [Tandutinib] (10 µM)
0: all assays above

CNC(=O)c1cc(COc2nnc(Nc3ccc(Cl)cc3)c3ccoc23)ccn1 [Telatinib] (10 µM)
0: all assays above

CC#CC(=O)Nc1ccc2ncnc(Nc3cccc(Br)c3)c2c1 (10 µM)
2: [9] | [15]
0: all other assays above

C[C@@H]1CC[C@@H](Nc2nc(NC(C)(C)C)ncc2C(N)=O)C[C@H]1O (10 µM)
0: all assays above

CC(=O)NC1CC(n2cnc(NC(=O)Cc3ccc4ccccc4c3)c2)C1 (configuration not stated) (10 µM)
0: all assays above

COc1ccc(Cl)c(Nc2nc3ccccc3nc2NS(=O)(=O)c2cccc(NC(=O)C(C)(C)N)c2)c1 [Pilaralisib] (10 µM)
0: all assays above

C=CC(=O)Nc1cccc(Nc2nc(Nc3ccc(N4CCN(C(C)=O)CC4)cc3OC)ncc2C(F)(F)F)c1 [Rociletinib] (10 µM)
0: all assays above

O=C(NCCN1CCCC1)c1cc(-c2ccc(CN3CCOCC3)cc2)nc2ccc(F)cc12 (10 µM)
0: all assays above

O=C(N/N=C/c1coc2ccccc2c1=O)c1cccnc1 (10 µM)
0: all assays above

Cc1[nH]c(/C=C2\C(=O)Nc3ccc(F)cc32)c(C)c1C(=O)N[C@H]1CCN(C(=O)N(C)C)C1 [Vorolanib] (10 µM)
0: all assays above

NC(=O)c1ccc2[nH]ccc2c1 (10 µM)
0: all assays above

Cn1ncc(Cl)c1-c1cc(C(=O)N[C@H](CN)Cc2ccc(F)c(F)c2)oc1Cl [Uprosertib] (10 µM)
0: all assays above

Additional results follow.

O=C1Nc2ccc(C(=O)c3ccco3)cc2C1=Cc1cc(Cl)c(O)c(Cl)c1 (2.5 µM)
0: all assays above

CNC(=O)c1c(F)cccc1Nc1nc(Nc2cc3c(cc2OC)CCN3C(=O)CN(C)C)nc2[nH]ccc12 (10 µM)
0: all assays above

c1cc(-c2c[nH]c3nccc(N4CCC[C@@]5(CCCCN5)C4)c23)ncn1 (10 µM)
0: all assays above

Cc1ccccc1-n1c([C@H](C)Nc2nc(N)nc3nc[nH]c23)nc2cccc(C)c2c1=O [CAL-130 (Hydrochloride)] (10 µM)
0: all assays above

COCCNc1nc2ccc(C#CC3(O)CCCCC3)cc2n1-c1ccnc(N)n1 (10 µM)
0: all assays above

Cc1c(NC(=O)c2cccn(-c3ccc(F)cc3)c2=O)ccc(Oc2ccnc(NC(=O)C3CC3)c2)c1C (2 µM)
1: [11]
3: [9] | [15]
0: all other assays above

CCc1cc2c(cc1N1CCC(N3CCOCC3)CC1)C(C)(C)c1[nH]c3cc(C#N)ccc3c1C2=O [Alectinib] (10 µM)
0: all assays above

FC(F)(F)c1ccc(CNc2ccc(Cc3c[nH]c4ncccc34)cn2)cc1 (10 µM)
0: all assays above

Cc1nc(-c2cn3c(n2)-c2ccc(-c4cnn(C(C)(C)C(N)=O)c4)cc2OCC3)n(C(C)C)n1 [Taselisib] (10 µM)
0: all assays above

CC(=O)c1c(C)cc2cccc(O)c2c1O [Nepodin] (10 µM)
0: all assays above

COc1ccc(OC)c(C2C(C#N)=C(N)Oc3n[nH]c(-c4ccc5ccccc5c4)c32)c1 (configuration not stated) (10 µM)
0: all assays above

C[C@@H](c1ccc(-c2ccccc2)c(F)c1)c1cc(NC(=N)N2CCOCC2)on1 [Rimacalib] (10 µM)
0: all assays above

COc1cc(/C=C/C(=O)NCC(O)c2ccc(O)cc2)ccc1O (configuration not stated) [N-Feruloyloctopamine] (2.5 µM)
0: all assays above

O=Nc1c(-c2c(O)[nH]c3ccc(F)cc23)[nH]c2ccccc12 [5'-Fluoroindirubinoxime] (10 µM)
0: all assays above

Cc1cc(CN2CCN(c3c(Br)cnc4nc(-c5ccc(N6CCN(C)CC6)cc5)[nH]c34)CC2)no1 (2.5 µM)
0: all assays above

c1ccc(-c2[nH]ncc2-c2ccnc3ccccc23)nc1 (10 µM)
0: all assays above

CC1=C(C(=O)O)N2C(=O)[C@@H](NC(=O)[C@H](N)C3=CCC=CC3)[C@H]2SC1 [Cephradine] (10 µM)
0: all assays above

O=C1N[C@@H](Cc2c[nH]c3ccccc23)C(=O)N2CCC[C@@H]12 [Brevianamide F] (10 µM)
0: all assays above

CN1CCC(c2cc(-c3ccncc3)c(-c3ccc(F)cc3)[nH]2)CC1 (10 µM)
0: all assays above

CN1CCN(c2cnc3c(C4CCN(C(=O)c5ccc(OC(F)(F)F)cc5N)CC4)ncnc3c2)CC1 (10 µM)
0: all assays above

O=C(Nc1ccc(CN2CCOCC2)cc1)c1ccc(-c2cccc(Cl)c2)o1 (10 µM)
0: all assays above

CCN1CCC(n2cc(CNc3cc(Cl)c4ncc(C#N)c(Nc5ccc(F)c(Cl)c5)c4c3)nn2)CC1 [Cot inhibitor-2] (2.5 µM)
0: all assays above

O=C(NCCN1CCOCC1)c1cc2c(Oc3ccc(NC(=O)C4(C(=O)Nc5ccc(F)cc5)CC4)cc3)ccnc2[nH]1 [Tyrosine kinase inhibitor] (10 µM)
0: all assays above
